Our source for the binding values is publication PMC3031627.

Chains of the proteins cited; added tags and fusions are not shown.
UniProt P53762: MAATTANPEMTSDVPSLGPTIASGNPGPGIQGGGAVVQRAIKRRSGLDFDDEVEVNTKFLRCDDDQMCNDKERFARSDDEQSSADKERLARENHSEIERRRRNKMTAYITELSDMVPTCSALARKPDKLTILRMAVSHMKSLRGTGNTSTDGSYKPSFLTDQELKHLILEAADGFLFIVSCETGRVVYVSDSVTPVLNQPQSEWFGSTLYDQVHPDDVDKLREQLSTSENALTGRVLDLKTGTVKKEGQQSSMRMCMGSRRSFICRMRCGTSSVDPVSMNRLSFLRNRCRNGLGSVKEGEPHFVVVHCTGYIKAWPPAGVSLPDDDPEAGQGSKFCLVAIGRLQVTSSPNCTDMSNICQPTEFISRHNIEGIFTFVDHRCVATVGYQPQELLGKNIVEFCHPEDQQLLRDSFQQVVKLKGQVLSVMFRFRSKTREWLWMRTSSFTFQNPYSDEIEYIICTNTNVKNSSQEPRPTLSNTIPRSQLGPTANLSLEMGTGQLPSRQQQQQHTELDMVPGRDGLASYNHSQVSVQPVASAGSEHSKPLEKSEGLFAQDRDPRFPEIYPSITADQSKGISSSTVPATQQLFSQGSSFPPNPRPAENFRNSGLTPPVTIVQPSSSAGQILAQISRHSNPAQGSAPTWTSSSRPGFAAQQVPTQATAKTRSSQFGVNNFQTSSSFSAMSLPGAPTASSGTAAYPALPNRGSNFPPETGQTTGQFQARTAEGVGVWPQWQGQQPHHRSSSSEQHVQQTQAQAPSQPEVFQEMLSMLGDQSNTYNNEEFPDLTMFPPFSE

The labels stand for the following.
B1: human wild type transglutaminase 2 (TG2) (enzyme, UniProt P21980 1-687)
chain: MAEELVLERCDLELETNGRDHHTADLCREKLVVRRGQPFWLTLHFEGRNYEASVDSLTFSVVTGPAPSQEAGTKARFPLRDAVEEGDWTATVVDQQDCTLSLQLTTPANAPIGLYRLSLEASTGYQGSSFVLGHFILLFNAWCPADAVYLDSEEERQEYVLTQQGFIYQGSAKFIKNIPWNFGQFEDGILDICLILLDVNPKFLKNAGRDCSRRSSPVYVGRVVSGMVNCNDDQGVLLGRWDNNYGDGVSPMSWIGSVDILRRWKNHGCQRVKYGQCWVFAAVACTVLRCLGIPTRVVTNYNSAHDQNSNLLIEYFRNEFGEIQGDKSEMIWNFHCWVESWMTRPDLQPGYEGWQALDPTPQEKSEGTYCCGPVPVRAIKEGDLSTKYDAPFVFAEVNADVVDWIQQDDGSVHKSINRSLIVGLKISTKSVGRDEREDITHTYKYPEGSSEEREAFTRANHLNKLAEKEETGMAMRIRVGQSMNMGSDFDVFAHITNNTAEEYVCRLLLCARTVSYNGILGPECGTKYLLNLNLEPFSEKSVPLCILYEKYRDCLTESNLIKVRALLVEPVINSYLLAERDLYLENPEIKIRILGEPKQKRKLVAEVSLQNPLPVALEGCTFTVEGAGLTEEQKTVEIPDPVEAGEEVKVRMDLLPLHMGLHKLVVNFESDKLKAVKGFRNVIIGPA
B2: TG2-C277S (transamidating inactive mutant of human TG2) (enzyme, UniProt P21980 1-687)
chain: B1 chain with C277S
B3: TG2-R580A (GTP binding deficient mutant of human TG2) (enzyme, UniProt P21980 1-687)
chain: B1 chain with R580A

Positions count from the first letter of the chain named. In names and notes the source's numbering stands. These are yes or no findings as the source states them, for the method shown. Binding seen in cells or lysates may run through a third protein. Some results given as binding are weak or reduced against the parent protein; the word gives no strength.

The experiment concerns the target HIF-1β, the constitutively expressed subunit of HIF-1 (Hypoxia inducible factor-1) (mouse (endogenous in mouse striatal cells)) (UniProt P53762). Nature of the experiment: co-IP; HIF-1β immunoprecipitated from 100 µg lysate of stable striatal cell lines with rabbit anti-mouse HIF-1β antibody on anti-rabbit IgG magnetic beads, 4 h at 4°C; washed with 350 mM NaCl, 0.2% Triton-X in PBS; blotted for TG2; cells kept under normoxic or hypoxic conditions.
For B1, the binding result is “binds”.

For B2, the binding result was “binds”.

Take B3: the binding entry was “binds”.
